According to PMC2812684 (Biochimica et biophysica acta, 2009):
“And” between values parts separate entries of the source, which are not always exact repeats. Equal entries are not always repeated. Where two headings read alike, the source gives them in different places.

Chains of the proteins cited; added tags and fusions are not shown. Lines headed by an entry give the natural chain unless they say otherwise; changes in a name come on top. Residues count along the entry.
UniProt P03889: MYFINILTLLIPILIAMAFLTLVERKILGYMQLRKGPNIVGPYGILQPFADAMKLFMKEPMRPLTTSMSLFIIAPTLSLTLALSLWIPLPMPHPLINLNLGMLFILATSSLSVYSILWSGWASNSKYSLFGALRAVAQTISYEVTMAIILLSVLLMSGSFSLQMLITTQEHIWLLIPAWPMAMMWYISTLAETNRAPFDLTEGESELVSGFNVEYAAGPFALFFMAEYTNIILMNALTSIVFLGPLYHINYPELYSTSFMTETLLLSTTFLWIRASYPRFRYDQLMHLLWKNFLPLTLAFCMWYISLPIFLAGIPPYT
UniProt Q641Y2, 34-463: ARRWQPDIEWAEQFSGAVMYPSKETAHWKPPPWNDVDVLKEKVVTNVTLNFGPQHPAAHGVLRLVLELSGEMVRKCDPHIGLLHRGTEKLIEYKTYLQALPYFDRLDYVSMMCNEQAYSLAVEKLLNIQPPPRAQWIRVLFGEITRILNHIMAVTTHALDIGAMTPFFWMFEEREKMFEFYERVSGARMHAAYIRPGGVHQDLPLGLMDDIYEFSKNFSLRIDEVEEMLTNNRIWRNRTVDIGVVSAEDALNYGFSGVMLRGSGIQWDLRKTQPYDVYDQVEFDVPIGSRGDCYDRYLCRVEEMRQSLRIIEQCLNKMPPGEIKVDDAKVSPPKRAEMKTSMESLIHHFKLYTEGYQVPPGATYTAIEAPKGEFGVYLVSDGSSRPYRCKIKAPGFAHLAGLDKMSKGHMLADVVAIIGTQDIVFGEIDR

Experiments:
[1] = molecular target: T1, NADH-ubiquinone oxidoreductase (complex I) (Rattus norvegicus, UniProt P03889+Q641Y2)
[2] = molecular target: T1, NADH-ubiquinone oxidoreductase (complex I); remark: listed apart in the source
[3] = molecular target: T1, NADH-ubiquinone oxidoreductase (complex I); assay: cell-based; settings: for IC50: IC50 Complex I
[4] = molecular target: T1, NADH-ubiquinone oxidoreductase (complex I); assay: cell-based; settings: for IC50: IC50 Complex I; remark: listed apart in the source
[5] = read-out: inhibition of respiration at flux point

Q: Which results are given for `C=C(C)[C@H]1Cc2c(ccc3c2O[C@@H]2COc4cc(OC)c(OC)cc4[C@@H]2C3=O)O1` [rotenone]?
A: decrease of IC50 with age [1]: 67%; decrease of IC50 with exogenous vs endogenous substrates [1]: 9%; increase of IC50 with exogenous vs endogenous substrates [1]: 114%; decrease of IC50 with age [2]: 21%; percent of initial respiration remaining at flux point [2]: 39% and 40%; IC50 ([3]; MA): 3 µM; IC50 ([3]; Old): 1 µM; inhibition at 3 µM [3, 5]: 39%; IC50 ([4]; MA): 1.4 µM; IC50 ([4]; Old): 1.1 µM; inhibition at 3 µM [4, 5]: 61%
